Results on 1 molecule are retold here after US20120301394A1 (published 2012).

The test addresses T1, Recombinant human MMR (R&D systems) (human, UniProt P22897 19-1383).
T1 construct: Bought protein (R&D Systems #2534) coated on ELISA plates; also called hMMR; MRC1
T1 sequence: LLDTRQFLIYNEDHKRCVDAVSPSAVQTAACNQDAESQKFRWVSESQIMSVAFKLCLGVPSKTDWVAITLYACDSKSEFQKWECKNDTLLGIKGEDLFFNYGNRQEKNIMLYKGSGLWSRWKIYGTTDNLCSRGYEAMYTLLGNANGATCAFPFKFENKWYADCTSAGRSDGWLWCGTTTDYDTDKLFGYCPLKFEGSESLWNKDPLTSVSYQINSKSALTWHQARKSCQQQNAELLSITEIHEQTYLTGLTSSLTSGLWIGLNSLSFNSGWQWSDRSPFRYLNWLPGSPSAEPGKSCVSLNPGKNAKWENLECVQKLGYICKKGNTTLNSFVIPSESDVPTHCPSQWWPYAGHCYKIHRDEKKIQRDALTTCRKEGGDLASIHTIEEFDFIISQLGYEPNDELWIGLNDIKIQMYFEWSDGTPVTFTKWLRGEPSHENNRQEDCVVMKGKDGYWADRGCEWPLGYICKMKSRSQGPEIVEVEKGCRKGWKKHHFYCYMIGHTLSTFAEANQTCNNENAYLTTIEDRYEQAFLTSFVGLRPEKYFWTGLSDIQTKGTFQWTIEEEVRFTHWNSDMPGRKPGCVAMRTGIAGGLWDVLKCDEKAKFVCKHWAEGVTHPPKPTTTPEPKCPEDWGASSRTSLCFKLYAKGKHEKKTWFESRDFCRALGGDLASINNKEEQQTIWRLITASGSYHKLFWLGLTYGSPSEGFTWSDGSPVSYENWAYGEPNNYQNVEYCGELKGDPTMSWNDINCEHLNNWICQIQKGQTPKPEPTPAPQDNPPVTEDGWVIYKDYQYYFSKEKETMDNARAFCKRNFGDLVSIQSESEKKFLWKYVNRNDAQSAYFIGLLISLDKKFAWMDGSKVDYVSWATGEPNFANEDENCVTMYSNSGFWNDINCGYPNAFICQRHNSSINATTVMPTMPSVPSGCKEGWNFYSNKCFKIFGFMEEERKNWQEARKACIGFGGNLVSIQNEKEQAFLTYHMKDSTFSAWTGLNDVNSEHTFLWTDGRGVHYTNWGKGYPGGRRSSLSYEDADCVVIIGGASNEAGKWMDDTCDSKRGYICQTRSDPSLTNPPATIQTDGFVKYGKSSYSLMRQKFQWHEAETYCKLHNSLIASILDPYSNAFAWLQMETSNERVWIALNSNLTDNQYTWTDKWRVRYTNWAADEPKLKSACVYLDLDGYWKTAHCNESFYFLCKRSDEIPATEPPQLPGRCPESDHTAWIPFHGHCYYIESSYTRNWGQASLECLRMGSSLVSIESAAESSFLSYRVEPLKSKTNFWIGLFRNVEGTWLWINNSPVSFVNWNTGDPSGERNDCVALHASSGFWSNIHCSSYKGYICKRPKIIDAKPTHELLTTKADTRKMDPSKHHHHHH
As to the kind of experiment: PE-ELISA, periplasmic extract on coated human MMR.

These are yes or no findings as the source states them, for the method shown. Some binding calls cover weakened binding; strength is not graded here.

B1: NbhmMMRm21.22 (VHH)
VHH: QVQLQESGGGLVQAGGSLRLSCAASGRTFSSAAMGWFRQAPGKEREPVALINLDDGETYYADIAKGRFTLSKDNAKNSVYLQMNSLKPEDTAVYYCAVRGRFDDNYEYWGQGTQVTVSS
As to B1, the binding result is recorded as “binds”.
